Reference: publication PMC8184781, “A histone H3K4me1-specific binding protein is required for siRNA accumulation and DNA methylation at a subset of loci targeted by RNA-directed DNA methylation” (Nature Communications, 2021)
No constants are given. Whether binding was seen depends on the method and setting. In cells and extracts the contact can be indirect. Some binding calls cover weakened binding; strength is not graded here. Where a sequence is shown, tags or fusion partners need not be part of it.

Tests used:
[1] = target: T1, RDM15 fused to a luciferase half (split luciferase construct) (Arabidopsis thaliana) (UniProt Q8GUP3); assay: split reporter; split luciferase complementation in N. benthamiana leaves, 2 days after infiltration; performed once
T1 sequence: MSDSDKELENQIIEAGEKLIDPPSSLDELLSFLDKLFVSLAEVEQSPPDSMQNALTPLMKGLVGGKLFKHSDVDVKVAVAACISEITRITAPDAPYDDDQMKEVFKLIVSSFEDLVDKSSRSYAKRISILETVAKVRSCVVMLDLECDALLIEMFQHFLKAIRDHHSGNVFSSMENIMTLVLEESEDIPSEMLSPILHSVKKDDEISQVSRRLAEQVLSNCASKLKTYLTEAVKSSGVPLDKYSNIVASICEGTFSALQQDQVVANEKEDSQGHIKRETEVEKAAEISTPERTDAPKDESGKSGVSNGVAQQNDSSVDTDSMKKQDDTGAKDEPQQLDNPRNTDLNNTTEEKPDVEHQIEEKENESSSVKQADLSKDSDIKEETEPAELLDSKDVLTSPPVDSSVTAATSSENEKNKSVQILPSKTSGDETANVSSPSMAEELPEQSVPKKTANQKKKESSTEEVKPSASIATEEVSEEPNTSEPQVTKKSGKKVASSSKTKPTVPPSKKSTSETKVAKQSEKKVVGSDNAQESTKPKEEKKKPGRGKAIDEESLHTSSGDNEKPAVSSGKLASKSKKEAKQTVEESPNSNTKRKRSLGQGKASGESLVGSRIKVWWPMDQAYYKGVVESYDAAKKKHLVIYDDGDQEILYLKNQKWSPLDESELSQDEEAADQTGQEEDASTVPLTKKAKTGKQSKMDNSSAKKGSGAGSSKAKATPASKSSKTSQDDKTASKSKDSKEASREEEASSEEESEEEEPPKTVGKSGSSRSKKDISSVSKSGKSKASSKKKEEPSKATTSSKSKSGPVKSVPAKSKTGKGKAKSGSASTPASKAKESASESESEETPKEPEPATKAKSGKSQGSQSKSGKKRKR

[2] = target: T2, RDM15-cYFP / RDM15-nYFP (BiFC constructs) (Arabidopsis thaliana) (UniProt Q8GUP3); assay: split reporter; BiFC (split YFP) in N. benthamiana leaves, 2 d after infiltration, Leica TCS-SP8; performed once
T2 sequence: T1 sequence

B1: NRPE3B fused to a luciferase half (split luciferase construct) (protein, UniProt Q39212 1-319)
chain: MDGVTYQRFPTVKIRELKDDYAKFELRETDVSMANALRRVMISEVPTMAIHLVKIEVNSSVLNDEFIAQRLSLIPLTSERAMSMRFCQDCEDCNGDEHCEFCSVEFPLSAKCVTDQTLDVTSRDLYSADPTVTPVDFTSNSSTSDSSEHKGIIIAKLRRGQELKLKALARKGIGKDHAKWSPAATVTYMYEPDIIINEEMMNTLTDEEKIDLIESSPTKVFGIDPVTGQVVVVDPEAYTYDEEVIKKAEAMGKPGLIEIHPKHDSFVFTVESTGALKASQLVLNAIDILKQKLDAIRLSDNTVEADDQFGELGAHMREG
- binding [1]: binds

B2: NRPE3B-nYFP / NRPE3B-cYFP (BiFC constructs) (protein, UniProt Q39212 1-319)
chain: B1 chain
- binding [2]: binds
